Test results as given in patent publication US20090226429A1 (Human Genome Sciences, published 2009).
These are yes or no findings as the source states them, for the method shown. Some binding calls cover weakened binding; strength is not graded here. For part of these data: Sequences can lack the tags named with a protein.

Legend:
[1] = biological target: T1, TR4 fusion protein (human) (UniProt O00220); test: specificity phage ELISA, antigen coated at 1 ug/ml
T1 sequence: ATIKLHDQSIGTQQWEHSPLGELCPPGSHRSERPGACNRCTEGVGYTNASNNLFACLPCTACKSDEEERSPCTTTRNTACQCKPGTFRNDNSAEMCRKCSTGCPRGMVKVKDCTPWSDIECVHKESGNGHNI

[2] = biological target: T1, TR4 fusion protein (human); test: phage display selection on TR4
[3] = biological target: T2, TR4 expressed on cells (human) (UniProt O00220); test: statement in Example 8; assay not named
T2 sequence: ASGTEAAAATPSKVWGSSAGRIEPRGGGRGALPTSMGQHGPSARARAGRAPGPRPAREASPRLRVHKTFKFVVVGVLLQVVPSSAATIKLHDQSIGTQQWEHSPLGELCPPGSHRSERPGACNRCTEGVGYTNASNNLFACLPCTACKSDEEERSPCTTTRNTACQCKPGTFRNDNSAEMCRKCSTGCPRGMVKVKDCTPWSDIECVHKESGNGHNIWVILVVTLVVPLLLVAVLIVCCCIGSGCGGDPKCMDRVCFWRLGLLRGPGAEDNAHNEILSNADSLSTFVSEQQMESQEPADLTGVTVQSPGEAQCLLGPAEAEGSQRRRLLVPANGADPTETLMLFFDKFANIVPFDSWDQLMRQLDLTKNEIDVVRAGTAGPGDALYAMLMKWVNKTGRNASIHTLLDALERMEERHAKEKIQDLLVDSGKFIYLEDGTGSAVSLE

B1: scFv T1014A04 (scFv)
scFv: EVQLVQSGADVKRPGASVKVSCKISGDSFNAYFIHWVRQAPGQGLEWMGWFNPDSGTADSAQKFHGRVTMTRDTSSSTAFLELSRLRSDDTAVYYCVRQHRGNTFAPWGRGTMVTVSSGGGGSGGGGSGGGGSAQSVLTQPPSASGSPGQSVTISCTGTTSDVGGYNYVSWYQQHPGKAPKLMIYGVNQRPSGVPDRFSGSKSGNTASLTVSGLQAEDEADYYCSSYAGSNNWVFGGGTKLTVLG
[1]
  binding: binds
[2]
  binding: binds

B2: scFv T1015A07 (scFv)
scFv: EVQLVQSGAEVKKPGASVKVSCKISGDSFTAYFIHWLRQAPGEGLEWMGWFNPISGTADSPQKFHGRVAMTRDTSISTAYMELTRLASDDTAIYYCARQHHSNTFDPWGQGTLVTVSSGGGGSGGGGSGGGGSAQSALTQPASMSGSPGQSITISCTGTSSDVGGYNYVSWYQQHPGKAPKLMIYAVTNRPSGVSNRFSASKSGNTASLTISGLQAEDEADYYCSSYTSSNTWVFGGGTKVTVLG
[2]
  binding: binds

B3: scFv T1014F08 (scFv)
scFv: EVQLVQSGAEVKKPGASVKLSCRVSGDTFTAYFIHWVRQAPGQGPEWMGWFNPISGTAGSAARFRGRVAMTRDTSISTAYMELNRLTFDDTAVYYCARQHRGNTFDPWGKGTLVTVSSGGGGSGGGGSGGGGSALPVLTQPPSASGSPGQSVTISCTGTSSDVGGYKYVSWYQQHPGKAPKLMIYEVSMRPSGVPDRFSGSKSGNTASLTVSGLQAEDEADYYCASYAGSNNWVFGGGTKLTVLG
[1]
  binding: binds
[2]
  binding: binds

B4: scFv T1014G03 (scFv)
scFv: EVQLVQSGAEVKMPGASVKLSCRVSGDTFTAYFIHWVRQAPGQGLEWMGWFNPISGTAGSAEKFRGRVAMTRDTSISTAYMELNRLTFDDTAVYYCARQHRGNTFDPWGQGTLVTVSSGGGGSGGGGSGGGGSAQSALTQPASVSGSPGQSITISCTGTSSDIGAYKYVSWYQQHPGKAPKLVIYEVSNRPSGVSSRFSGSKSGQTASLTISGLQADDEADYYCNSYQGYNTWVFGGGTKVTVLG
[1]
  binding: binds
[2]
  binding: binds

B5: scFv T1014G04 (scFv)
scFv: EVQLVQSGADVKRPGASVKVSCKISGDSFTAYFIHWVRQAPGQGLEWMGWFNPDSGTADSAQKFHGRVTMTRDTSSSTAFLELSRLRSDDTAVYYCVRQHRGNTFAPWGRGTLVTVSSGGGGSGGGGSGGGGSAQPVLTQPPSASGSPGQSVTISCTGTSSDVGSYEYVSWYQQHPGKAPRLMISEVNKRPSGVPNRFSGSKSGNTASLTVSGLQADDEADYYCSSYAGSNNWVFGGGTKVTVLG
[1]
  binding: binds
[2]
  binding: binds

B6: scFv T1014B11 (scFv)
scFv: EVQLVQSGAEVKKPGASVKVSCKISGDSFTAYFIHWLRQAPGEGLEWMGWFNPISGTAGSPQKFHGRVAMTRDTSISTAYMELTRLASDDTAIYYCARQHHSNTFDPWGQGTLVTVSSGGGGSGGGGSGGGGSAQSALTQPASVSGSPGQSITISCTGTNSDVGGYNYVSWYQQHPGKAPKLMIYEVNNRPSGVSNRFSGSKSGNTASLTISGLQADDEADYYCSSYTTSNTWVFGGGTKLTVLG
[1]
  binding: binds
[2]
  binding: binds

B7: scFv T1014A02 (scFv)
scFv: QVQLQESGPGLVKPSETLSLTCTVSGGSISDYYWSWVRQSPGKGLEWIGSIDYAGSTNYNPSLKSRVTMTIDKSKKQFPLKIDSVTAADTAMYYCARQLGRISDYWGQGTLVTVSSGGGGSGGGGSGGGGSALSYVLTQPPSASGTPGQRVTISCAGSSSNIGGNTVNWYQQLPATAPKLLIYSNNQRPSGVPDRFSGSKSGTSASLAISGLQSEDEADYYCATWDDSRGGWVFGGGTKLTVLG
[2]
  binding: binds

B8: IgG1 antibody comprising the VH and VL domains of the T1014F08 scFv (antibody, V domains shown)
VH: EVQLVQSGAEVKKPGASVKLSCRVSGDTFTAYFIHWVRQAPGQGPEWMGWFNPISGTAGSAARFRGRVAMTRDTSISTAYMELNRLTFDDTAVYYCARQHRGNTFDPWGKGTLVTVSS
VL: LPVLTQPPSASGSPGQSVTISCTGTSSDVGGYKYVSWYQQHPGKAPKLMIYEVSMRPSGVPDRFSGSKSGNTASLTVSGLQAEDEADYYCASYAGSNNWVFGGGTKLTVLG
[3]
  binding: binds

B9: scFv T1014A12 (scFv)
scFv: EVQLVQSGADVKRPGASVKVSCKISGDSFTAYFIHWVRQAPGQGLEWMGWFNPDSGTADSAQKFHGRVTMTRDTSSSTAFLELSRLRSDDTAVYYCVRQHRGNTFAPWGRGTMVTVSSGGGGSGGGGSGGGGSAQSALTQPASVSGPPGQSITISCTGSSSDVGGYKYVSWYQQHPGKAPKLIIHDVSRRPSEVSSRFSGSKSGNTASLTISGLQAEDEAEYYCSSYSSTNSWVFGGGTKVTVLG
[2]
  binding: binds

B10: scFv T1014B01 (scFv)
scFv: QVQLVQSGAEVKKPGASVKVSCKISGDTFAAYFIHWVRQAPGQGLEWMGWFNPNSGTADSSQKFHGRVTMTRDTSISTAYMELSRLRSDDTAVYYCARQHRSNTFDPWGQGTMVTVSSGGGGSGGGGSGGGGSAQSVVTQPPSVSGSPGQSVTISCTGTSSDIGAYNYVSWFQQHPGKAPKLIISEVSKRPSGVPDRLSGSKSGNTASLTVSGLQAEDEADYYCGSYAGSNIWVFGGGTKVTVLG
[2]
  binding: binds
